Results published in patent US12171230B2, “Herbicidal compositions” (Bayer Aktiengesellschaft, priority 2018, dated 2024).
“And” between values parts separate entries of the source, which are not always exact repeats. Equal values may be shown once. At least one read-out could not be matched to a standard name with certainty.

Test system: Amaranthus palmeri
Experiment: Post-emergence herbicidal action against Amaranthus palmeri
Format: in vivo
Protocol: When the observed efficacies exceed the formal sum total of the values of the tests with individual applications, they also exceed the expected value according to Colby, which is calculated using the formula below and is likewise regarded as an indication of synergism (cf. S. R. Colby; in Weeds 15 (1967) p. 20 to 22): E^C=A+B−([…])
Here: • A=efficacy of the active compound (A) in % at an application rate of a g a.i./ha; • B=efficacy of the active compound (B) in % at an application rate of b g a.i./ha; • E^C=expected value of the effect of the combination (A)+(B) in % at the combined application rate a+b g a.i./ha.
Seeds or rhizome pieces of mono- and dicotyledonous weeds are placed in sandy loam in pots, covered with soil and grown in a greenhouse under good growth conditions (temperature, air humidity, water supply). Three weeks after sowing, the test plants were treated at the three-leaf stage with the compositions according to the invention. The compositions according to the invention formulated as spray powders or as emulsion concentrates were sprayed onto the green plant parts in various dosages with an application rate of 300 to 800 l/ha of water (equivalent). After the test plants have been left to stand in the greenhouse under optimal growth conditions for about 3 to 4 weeks, the action of the preparations is scored visually in comparison to untreated controls. […]

With C=C[C@]1(C(=O)N[C@H]2CO[C@@H](C(=O)OC)C2)CC(c2cc(F)cc(F)c2)=NO1 (relative stereo) [Compound A3, methyl rel-(2R,4R)-4-[[(5S)-3-(3,5-difluorophenyl)-5-vinyl-4H-isoxazole-5-carbonyl]amino]tetrahydrofuran-2-carboxylate] the “Herbicidal action 21 DAT [%] against Amaranthus palmeri” value (1.7 g of a.i./ha) was 10% and 0% and the “Herbicidal action 21 DAT [%] against Amaranthus palmeri” value (5 g of a.i./ha) was 10%.
